Results are given in words; binding and its absence hold for the method and conditions named. In cells and extracts the contact can be indirect. Some entries that bind do so weakly or less than the wild type.
Biological target: p150^Glued, subunit of dynactin, endogenous (human (endogenous in HUVEC)) (UniProt Q14203)
Assay: co-IP; endogenous proteins in HUVECs treated with 30 µM histamine or vehicle, cross-linked with 1% PFA, NP-40 lysate; IP with anti-Rab46, anti-DHC, anti-p150 or anti-ATP1α1 antibody or control IgG on Protein G sepharose; western blot

By UniProt entry, the sequences of proteins in these tests, tags left out.
UniProt Q14203: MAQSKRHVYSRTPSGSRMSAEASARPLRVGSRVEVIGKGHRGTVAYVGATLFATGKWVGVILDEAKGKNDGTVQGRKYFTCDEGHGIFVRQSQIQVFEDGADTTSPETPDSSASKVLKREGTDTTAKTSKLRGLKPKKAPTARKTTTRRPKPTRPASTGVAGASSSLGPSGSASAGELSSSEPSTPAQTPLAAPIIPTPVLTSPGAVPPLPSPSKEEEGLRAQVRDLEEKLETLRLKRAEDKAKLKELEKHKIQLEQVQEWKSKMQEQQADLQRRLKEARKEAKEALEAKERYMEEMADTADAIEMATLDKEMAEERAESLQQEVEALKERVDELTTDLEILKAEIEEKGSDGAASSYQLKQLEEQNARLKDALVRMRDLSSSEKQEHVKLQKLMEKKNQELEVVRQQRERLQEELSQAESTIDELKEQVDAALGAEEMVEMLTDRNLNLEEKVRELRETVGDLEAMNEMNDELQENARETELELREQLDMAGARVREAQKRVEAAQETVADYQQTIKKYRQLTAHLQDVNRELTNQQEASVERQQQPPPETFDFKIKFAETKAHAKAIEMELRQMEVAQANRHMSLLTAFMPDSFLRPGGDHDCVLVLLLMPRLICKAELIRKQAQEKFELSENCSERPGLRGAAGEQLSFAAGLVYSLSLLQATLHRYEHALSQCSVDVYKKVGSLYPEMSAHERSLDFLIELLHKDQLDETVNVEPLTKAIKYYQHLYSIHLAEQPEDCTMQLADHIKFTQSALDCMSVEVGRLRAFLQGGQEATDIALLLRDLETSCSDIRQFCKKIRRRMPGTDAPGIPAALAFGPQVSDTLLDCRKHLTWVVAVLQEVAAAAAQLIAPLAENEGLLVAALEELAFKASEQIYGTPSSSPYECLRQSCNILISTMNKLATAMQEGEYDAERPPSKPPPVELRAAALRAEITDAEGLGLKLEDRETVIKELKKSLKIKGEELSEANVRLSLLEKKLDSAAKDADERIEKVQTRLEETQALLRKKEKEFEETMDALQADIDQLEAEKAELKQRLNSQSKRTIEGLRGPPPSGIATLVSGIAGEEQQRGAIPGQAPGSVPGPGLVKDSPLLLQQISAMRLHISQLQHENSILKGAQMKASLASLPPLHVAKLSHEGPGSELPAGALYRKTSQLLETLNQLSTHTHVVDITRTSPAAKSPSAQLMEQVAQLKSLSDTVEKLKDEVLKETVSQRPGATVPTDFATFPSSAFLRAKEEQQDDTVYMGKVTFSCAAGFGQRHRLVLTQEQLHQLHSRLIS
UniProt Q14204: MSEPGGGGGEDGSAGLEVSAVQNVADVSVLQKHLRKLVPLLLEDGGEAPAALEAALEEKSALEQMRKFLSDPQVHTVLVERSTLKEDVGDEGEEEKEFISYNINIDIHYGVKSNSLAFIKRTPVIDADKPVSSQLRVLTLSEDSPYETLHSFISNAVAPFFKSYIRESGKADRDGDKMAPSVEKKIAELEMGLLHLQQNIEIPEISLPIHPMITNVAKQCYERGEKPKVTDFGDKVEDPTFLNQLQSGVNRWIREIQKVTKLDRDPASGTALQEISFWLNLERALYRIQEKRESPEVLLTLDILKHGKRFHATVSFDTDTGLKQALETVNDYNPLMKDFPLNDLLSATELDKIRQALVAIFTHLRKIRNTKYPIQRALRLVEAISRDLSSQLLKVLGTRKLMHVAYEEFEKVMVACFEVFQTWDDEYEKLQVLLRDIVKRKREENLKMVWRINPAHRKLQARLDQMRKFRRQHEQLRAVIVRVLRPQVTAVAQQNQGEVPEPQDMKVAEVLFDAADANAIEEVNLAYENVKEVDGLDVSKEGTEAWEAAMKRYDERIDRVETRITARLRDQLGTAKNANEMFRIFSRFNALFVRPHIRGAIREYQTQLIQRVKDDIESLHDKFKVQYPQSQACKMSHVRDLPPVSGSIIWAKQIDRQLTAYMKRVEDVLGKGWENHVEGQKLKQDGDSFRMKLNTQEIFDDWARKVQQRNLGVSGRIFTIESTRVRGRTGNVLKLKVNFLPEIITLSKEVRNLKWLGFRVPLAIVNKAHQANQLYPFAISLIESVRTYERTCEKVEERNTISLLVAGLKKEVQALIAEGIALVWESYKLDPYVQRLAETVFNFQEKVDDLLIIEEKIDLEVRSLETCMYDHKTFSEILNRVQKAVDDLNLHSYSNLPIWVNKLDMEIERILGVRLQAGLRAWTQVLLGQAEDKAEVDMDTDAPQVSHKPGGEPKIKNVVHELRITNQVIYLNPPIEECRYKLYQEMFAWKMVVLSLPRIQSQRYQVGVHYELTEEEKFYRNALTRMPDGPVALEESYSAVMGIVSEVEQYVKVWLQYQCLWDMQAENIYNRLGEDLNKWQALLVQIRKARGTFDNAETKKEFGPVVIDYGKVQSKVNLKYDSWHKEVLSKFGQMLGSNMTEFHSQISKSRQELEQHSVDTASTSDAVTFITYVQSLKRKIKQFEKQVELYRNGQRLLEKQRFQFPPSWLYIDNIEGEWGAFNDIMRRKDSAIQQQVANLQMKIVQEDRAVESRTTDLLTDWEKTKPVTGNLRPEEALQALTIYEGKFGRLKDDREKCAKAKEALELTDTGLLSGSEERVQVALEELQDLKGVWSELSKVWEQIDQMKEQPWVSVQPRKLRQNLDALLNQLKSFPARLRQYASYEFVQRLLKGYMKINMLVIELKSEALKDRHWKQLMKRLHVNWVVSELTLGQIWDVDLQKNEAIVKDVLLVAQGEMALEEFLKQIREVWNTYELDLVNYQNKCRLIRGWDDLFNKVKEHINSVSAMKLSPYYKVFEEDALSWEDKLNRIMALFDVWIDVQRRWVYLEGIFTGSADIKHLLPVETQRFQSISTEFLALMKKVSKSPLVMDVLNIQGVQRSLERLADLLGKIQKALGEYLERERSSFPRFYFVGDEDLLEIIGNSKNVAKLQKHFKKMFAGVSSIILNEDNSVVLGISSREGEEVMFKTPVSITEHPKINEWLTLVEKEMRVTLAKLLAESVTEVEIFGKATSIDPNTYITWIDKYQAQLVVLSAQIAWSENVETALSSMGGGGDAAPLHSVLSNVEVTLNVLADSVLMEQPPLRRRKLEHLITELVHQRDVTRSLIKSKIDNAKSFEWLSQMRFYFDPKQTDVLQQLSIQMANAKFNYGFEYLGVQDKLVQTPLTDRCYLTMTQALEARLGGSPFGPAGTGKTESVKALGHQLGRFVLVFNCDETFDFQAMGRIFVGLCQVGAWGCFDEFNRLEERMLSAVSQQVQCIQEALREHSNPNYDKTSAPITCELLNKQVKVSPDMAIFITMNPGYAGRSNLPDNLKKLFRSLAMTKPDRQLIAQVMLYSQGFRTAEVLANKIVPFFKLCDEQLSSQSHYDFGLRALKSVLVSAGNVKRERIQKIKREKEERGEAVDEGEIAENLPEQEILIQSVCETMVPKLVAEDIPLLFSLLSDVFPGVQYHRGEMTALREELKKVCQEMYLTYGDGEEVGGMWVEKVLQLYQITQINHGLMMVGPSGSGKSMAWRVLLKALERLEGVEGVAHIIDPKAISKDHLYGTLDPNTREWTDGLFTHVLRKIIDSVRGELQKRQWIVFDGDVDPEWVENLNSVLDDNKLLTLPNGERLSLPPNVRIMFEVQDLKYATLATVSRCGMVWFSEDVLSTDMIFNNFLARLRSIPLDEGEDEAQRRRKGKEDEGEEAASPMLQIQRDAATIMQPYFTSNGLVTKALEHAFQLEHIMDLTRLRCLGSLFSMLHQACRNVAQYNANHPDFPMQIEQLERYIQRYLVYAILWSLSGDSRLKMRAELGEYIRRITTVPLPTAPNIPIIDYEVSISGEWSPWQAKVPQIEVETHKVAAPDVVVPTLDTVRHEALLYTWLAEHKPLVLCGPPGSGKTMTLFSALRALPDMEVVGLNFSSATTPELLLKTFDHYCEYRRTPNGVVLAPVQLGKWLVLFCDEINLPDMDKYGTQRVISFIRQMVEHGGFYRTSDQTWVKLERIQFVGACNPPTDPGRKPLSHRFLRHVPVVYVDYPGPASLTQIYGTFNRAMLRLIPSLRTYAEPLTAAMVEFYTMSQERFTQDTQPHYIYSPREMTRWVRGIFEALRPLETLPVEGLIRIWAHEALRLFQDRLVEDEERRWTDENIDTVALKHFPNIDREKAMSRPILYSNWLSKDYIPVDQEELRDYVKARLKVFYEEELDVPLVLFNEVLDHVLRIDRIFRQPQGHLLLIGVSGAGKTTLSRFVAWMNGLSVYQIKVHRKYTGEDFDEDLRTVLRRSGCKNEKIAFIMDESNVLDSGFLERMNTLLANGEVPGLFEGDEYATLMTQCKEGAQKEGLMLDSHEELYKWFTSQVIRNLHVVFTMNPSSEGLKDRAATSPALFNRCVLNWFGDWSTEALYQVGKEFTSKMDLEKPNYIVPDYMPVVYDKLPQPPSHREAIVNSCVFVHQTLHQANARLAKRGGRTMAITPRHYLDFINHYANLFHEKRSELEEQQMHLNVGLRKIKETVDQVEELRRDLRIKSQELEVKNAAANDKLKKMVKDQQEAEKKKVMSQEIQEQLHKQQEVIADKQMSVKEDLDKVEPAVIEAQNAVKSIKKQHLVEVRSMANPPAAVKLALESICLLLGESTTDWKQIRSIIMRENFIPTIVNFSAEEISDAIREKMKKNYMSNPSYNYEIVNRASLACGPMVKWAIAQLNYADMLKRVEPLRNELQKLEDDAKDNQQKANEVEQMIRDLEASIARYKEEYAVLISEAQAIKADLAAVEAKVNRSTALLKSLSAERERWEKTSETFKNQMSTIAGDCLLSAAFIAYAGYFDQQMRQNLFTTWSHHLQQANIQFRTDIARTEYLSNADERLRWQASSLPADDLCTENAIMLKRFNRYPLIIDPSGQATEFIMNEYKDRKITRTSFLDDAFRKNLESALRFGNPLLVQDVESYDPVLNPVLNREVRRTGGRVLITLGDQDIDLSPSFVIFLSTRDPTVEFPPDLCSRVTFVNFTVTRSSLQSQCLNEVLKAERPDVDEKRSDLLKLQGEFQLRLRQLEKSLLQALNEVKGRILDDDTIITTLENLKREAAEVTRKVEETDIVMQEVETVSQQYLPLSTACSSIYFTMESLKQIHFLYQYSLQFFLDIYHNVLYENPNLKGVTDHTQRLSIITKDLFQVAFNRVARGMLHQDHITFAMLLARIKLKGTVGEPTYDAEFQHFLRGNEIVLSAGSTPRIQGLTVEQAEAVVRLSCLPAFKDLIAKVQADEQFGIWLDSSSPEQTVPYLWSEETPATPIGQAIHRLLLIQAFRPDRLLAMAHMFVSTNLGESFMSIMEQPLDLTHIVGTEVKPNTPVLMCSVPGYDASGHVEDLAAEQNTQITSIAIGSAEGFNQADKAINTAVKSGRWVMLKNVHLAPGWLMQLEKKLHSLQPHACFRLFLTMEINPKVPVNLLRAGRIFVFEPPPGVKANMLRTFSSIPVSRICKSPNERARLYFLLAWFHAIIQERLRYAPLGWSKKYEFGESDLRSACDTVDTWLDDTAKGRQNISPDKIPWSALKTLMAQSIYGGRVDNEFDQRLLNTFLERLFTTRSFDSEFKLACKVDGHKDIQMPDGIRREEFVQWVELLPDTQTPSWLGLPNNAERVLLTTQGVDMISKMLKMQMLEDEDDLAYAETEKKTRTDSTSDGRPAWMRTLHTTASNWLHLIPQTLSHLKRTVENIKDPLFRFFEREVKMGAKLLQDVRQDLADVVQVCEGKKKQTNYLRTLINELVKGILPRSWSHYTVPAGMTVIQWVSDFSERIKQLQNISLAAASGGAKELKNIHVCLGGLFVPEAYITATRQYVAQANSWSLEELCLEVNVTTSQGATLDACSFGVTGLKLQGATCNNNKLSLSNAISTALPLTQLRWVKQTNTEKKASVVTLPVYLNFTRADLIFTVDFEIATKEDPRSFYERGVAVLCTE

binding: binds
Substance: dynein heavy chain (DHC), endogenous (from UniProt Q14204 1-4646)

Reference: PMC7893075
